Assay results taken from PMC8584173, “The Cytotoxic Effect of Copper (II) Complexes with Halogenated 1,3-Disubstituted Arylthioureas on Cancer and Bacterial Cells” (International Journal of Molecular Sciences, 2021).

Key:
Format in all cases: cell-based
[1] = test system: SW620 (human metastatic colon cancer); experiment: MTT cytotoxicity assay, SW620; details: IC50 for normal cell line (HaCaT)/IC50 SW620
Procedure: (§1) The human primary (SW480), metastatic (SW620) colon cancer, metastatic prostate cancer (PC3) and human immortal keratinocyte (HaCaT) cell lines were purchased from the American Type Culture Collection (ATCC, Rockville, USA). The cells were cultured in medium according to protocols (MEM for SW480 and SW620, RPMI 1640 for PC3 and DMEM for HaCaT cells) supplemented with 10% fetal bovine serum (FBS), penicillin (100 U/mL) and streptomycin (100 μg/mL) and cultured in 37 °C/ 5% CO2 humidified incubator. The cells were cultured until appropriate confluence was achieved (80–90%). Next, they were harvested by treatment with 0.25% trypsin (Gibco Life Technologies, USA) and used for studies.
(§2) Cells without studied compounds in medium were used as a control.
(§3) The cell viability was assessed by determination of MTT salt (3-(4,5-dimethylthiazol-2-yl)-2,5-diphenyltetrazolium bromide) conversion by mitochondrial dehydrogenase. MTT assay was performed as previously described. Experiments were repeated three times. Cell viability was presented as a percentage of MTT reduction in the treated cells versus the control cells. Number of viable cells cultured without studied compounds was assumed to be 100%. Decreased relative MTT level means decreased cell viability.

[2] = test system: SW480 (human primary colon cancer); experiment: MTT cytotoxicity assay, SW480; details: IC50 for normal cell line (HaCaT)/IC50 SW480
Procedure: as §1, §2
as §3, with “viability. Thiourea complexes with the highest cytotoxic potential assessed by MTT determination (with the lowest IC50) were chosen for subsequent assessments of cytotoxicity mechanisms.” for “viability.”

[3] = test system: PC3 (human metastatic prostate cancer); experiment: MTT cytotoxicity assay, PC3; details: IC50 for normal cell line (HaCaT)/IC50 PC3
Procedure: as §1, §2
as §3, with “viability. Thiourea complexes with the highest cytotoxic potential assessed by MTT determination (with the lowest IC50) were chosen for subsequent assessments of cytotoxicity mechanisms.” for “viability.”

| SMILES | SI (selectivity index) [1] | SI (selectivity index) [2] | SI (selectivity index) [3] |
| --- | --- | --- | --- |
| O=[N+]([O-])c1cc([N+]2=C(Nc3ccccc3Br)[S][Cu-2]23[S]C(Nc2ccccc2Br)=[N+]3c2ccc(Cl)c([N+](=O)[O-])c2)ccc1Cl [Compound 1, Copper (II) complex with 1-(2-bromophenyl)-3-(4-chloro-3-nitrophenyl)thiourea] | 33.2 | 23.2 | 11.5 |
| O=[N+]([O-])c1cc([N+]2=C(Nc3cccc(Br)c3)[S][Cu-2]23[S]C(Nc2cccc(Br)c2)=[N+]3c2ccc(Cl)c([N+](=O)[O-])c2)ccc1Cl [Compound 2, Copper (II) complex with 1-(3-bromophenyl)-3-(4-chloro-3-nitrophenyl)thiourea] | 7.5 | 6.8 | 8.7 |
| O=[N+]([O-])c1cc([N+]2=C(Nc3ccc(Br)cc3)[S][Cu-2]23[S]C(Nc2ccc(Br)cc2)=[N+]3c2ccc(Cl)c([N+](=O)[O-])c2)ccc1Cl [Compound 3, Copper (II) complex with 1-(4-bromophenyl)-3-(4-chloro-3-nitrophenyl)thiourea] | 5.3 | 8.6 | 11.7 |
| O=[N+]([O-])c1cc([N+]2=C(Nc3ccc(F)c(Cl)c3)[S][Cu-2]23[S]C(Nc2ccc(F)c(Cl)c2)=[N+]3c2ccc(Cl)c([N+](=O)[O-])c2)ccc1Cl [Compound 4, Copper (II) complex with 1-(3-chloro-4-fluorophenyl)-3-(4-chloro-3-nitrophenyl)thiourea] | 5.7 | 6.3 | 5.2 |
| O=[N+]([O-])c1cc([N+]2=C(Nc3ccc(Cl)c(Cl)c3)[S][Cu-2]23[S]C(Nc2ccc(Cl)c(Cl)c2)=[N+]3c2ccc(Cl)c([N+](=O)[O-])c2)ccc1Cl [Compound 5, Copper (II) complex with 1-(4-chloro-3-nitrophenyl)-3-(3,4-dichlorophenyl)thiourea] | 15.2 | 8.1 | 14.4 |
| O=[N+]([O-])c1cc(NC2=[N+](c3ccc(Cl)c([N+](=O)[O-])c3)[Cu-2]3([S]2)[S]C(Nc2ccc(Cl)c([N+](=O)[O-])c2)=[N+]3c2ccc(Cl)c([N+](=O)[O-])c2)ccc1Cl [Compound 6, Copper (II) complex with 1,3-bis(4-chloro-3-nitrophenyl)thiourea] | 5.7 | 4.6 | 6.1 |
| O=[N+]([O-])c1cc([N+]2=C(Nc3ccccc3F)[S][Cu-2]23[S]C(Nc2ccccc2F)=[N+]3c2ccc(Cl)c([N+](=O)[O-])c2)ccc1Cl [Compound 7, Copper (II) complex with 1-(2-fluorophenyl)-3-(4-chloro-3-nitrophenyl)thiourea] | 12.8 | 8.9 |  |
| O=[N+]([O-])c1cc([N+]2=C(Nc3ccc(I)cc3)[S][Cu-2]23[S]C(Nc2ccc(I)cc2)=[N+]3c2ccc(Cl)c([N+](=O)[O-])c2)ccc1Cl [Compound 8, Copper (II) complex with 1-(4-iodophenyl)-3-(4-chloro-3-nitrophenyl)thiourea] | 5.7 | 26.3 | 23.8 |
